Results published in PMC4534038, “Plasmodium falciparum Hop (PfHop) Interacts with the Hsp70 Chaperone in a Nucleotide-Dependent Fashion and Exhibits Ligand Selectivity” (PLoS ONE, 2015).
These are yes or no findings as the source states them, for the method shown. For part of these data: Binding seen in cells or lysates may run through a third protein. Some binding calls cover weakened binding; strength is not graded here. For part of these data: Tags and fused reporters may be left off the sequences shown.

By UniProt entry, the sequences of proteins in these tests, tags left out. Where a name states a change or a piece, a line headed by the entry shows the natural chain unless it says otherwise. Chains listed by the source or under a name are the forms on record and can include a tag or linker. Residues count along the entry.
UniProt Q8IB24: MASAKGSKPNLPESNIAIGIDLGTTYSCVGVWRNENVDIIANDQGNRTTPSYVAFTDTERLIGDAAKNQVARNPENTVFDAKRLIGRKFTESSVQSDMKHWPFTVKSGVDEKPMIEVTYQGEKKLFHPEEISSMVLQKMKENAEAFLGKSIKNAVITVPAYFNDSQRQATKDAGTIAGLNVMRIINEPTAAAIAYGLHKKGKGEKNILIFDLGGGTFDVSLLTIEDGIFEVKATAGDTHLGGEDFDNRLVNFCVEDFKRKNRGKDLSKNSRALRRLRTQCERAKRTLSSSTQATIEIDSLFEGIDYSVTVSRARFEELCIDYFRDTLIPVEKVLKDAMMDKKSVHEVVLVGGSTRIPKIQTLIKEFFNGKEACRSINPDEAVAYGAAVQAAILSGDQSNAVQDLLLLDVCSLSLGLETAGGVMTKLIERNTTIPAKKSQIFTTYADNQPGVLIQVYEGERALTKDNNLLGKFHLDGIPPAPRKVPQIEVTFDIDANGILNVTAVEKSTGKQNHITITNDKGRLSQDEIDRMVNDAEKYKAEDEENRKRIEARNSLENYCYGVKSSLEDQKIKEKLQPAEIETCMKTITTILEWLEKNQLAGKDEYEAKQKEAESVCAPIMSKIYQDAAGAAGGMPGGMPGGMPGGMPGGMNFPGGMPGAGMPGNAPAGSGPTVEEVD
ATPase subdomain of PfHsp70-1 (PfHsp70-1NBD), recombinant, his-tagged: residues 1-398 of Q8IB24

Key:
[1] = target: T1, PfHop, endogenous in P. falciparum parasites (Plasmodium falciparum (endogenous in parasites)) (UniProt Q8ILC1); assay: co-IP; P. falciparum trophozoite lysate (about 300 μg protein) on resin coupled with anti-PfHop antibodies, 2 h at 4°C; 5 mM ATP or 5 mM ADP; Western blot with anti-PfHsp70-1 and anti-PfHop
T1 sequence: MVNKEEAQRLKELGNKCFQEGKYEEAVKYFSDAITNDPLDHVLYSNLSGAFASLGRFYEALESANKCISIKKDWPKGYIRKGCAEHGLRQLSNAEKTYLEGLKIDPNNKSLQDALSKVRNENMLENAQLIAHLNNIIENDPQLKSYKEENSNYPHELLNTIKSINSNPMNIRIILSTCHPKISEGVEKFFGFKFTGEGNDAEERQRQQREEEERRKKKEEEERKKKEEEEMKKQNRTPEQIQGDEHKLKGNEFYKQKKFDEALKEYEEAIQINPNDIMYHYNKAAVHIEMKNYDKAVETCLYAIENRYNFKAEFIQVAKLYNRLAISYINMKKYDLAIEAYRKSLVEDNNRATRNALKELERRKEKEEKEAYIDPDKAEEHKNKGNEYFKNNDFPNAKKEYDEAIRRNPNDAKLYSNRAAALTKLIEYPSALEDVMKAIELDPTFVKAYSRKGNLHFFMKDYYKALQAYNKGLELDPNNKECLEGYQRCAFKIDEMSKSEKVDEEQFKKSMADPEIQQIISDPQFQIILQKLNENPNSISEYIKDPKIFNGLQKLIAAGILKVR

[2] = target: T2, Plasmodium falciparum Hsp70-Hsp90 organising protein (PfHop), recombinant, his-tagged (Plasmodium falciparum), Q8ILC1; assay: SPR; ProteOn XPR36, GLC chip, amine coupling; PfHop immobilised as ligand, PfHop 125-2000 nM as analyte (self-association); 25°C, PBS-Tween with 20 mM EDTA pH 7.4; no nucleotide, 5 mM ADP or 5 mM ATP; both purified; conditions: remark: other sources report otherwise
T2 chain: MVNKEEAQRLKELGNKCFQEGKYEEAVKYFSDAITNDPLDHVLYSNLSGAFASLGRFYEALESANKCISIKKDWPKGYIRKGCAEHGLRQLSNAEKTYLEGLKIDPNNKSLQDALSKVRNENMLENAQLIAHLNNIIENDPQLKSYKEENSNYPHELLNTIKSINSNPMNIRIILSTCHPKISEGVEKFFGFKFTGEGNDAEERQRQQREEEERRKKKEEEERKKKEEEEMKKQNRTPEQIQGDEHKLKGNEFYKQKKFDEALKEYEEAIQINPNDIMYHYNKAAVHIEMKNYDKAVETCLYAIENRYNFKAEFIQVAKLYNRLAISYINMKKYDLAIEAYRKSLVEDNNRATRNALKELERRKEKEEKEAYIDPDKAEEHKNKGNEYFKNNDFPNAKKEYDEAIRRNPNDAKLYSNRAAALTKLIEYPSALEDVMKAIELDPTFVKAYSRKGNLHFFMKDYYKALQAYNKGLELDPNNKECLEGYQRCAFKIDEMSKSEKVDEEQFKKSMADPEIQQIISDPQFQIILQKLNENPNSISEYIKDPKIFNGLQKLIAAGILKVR

[3] = target: ATPase subdomain of PfHsp70-1 (PfHsp70-1NBD), recombinant, his-tagged (Plasmodium falciparum) (UniProt Q8IB24); assay: SPR; ProteOn XPR36, GLC chip, amine coupling; PfHsp70-1 or PfHsp70-1NBD (1 μg/mL) immobilised, PfHop 125-2000 nM as analyte (also repeated with ligand and analyte swapped); 25°C, PBS-Tween with 20 mM EDTA pH 7.4; no nucleotide, 5 mM ADP or 5 mM ATP; both purified

**Q.** How did the binding [1] turn out when “PfHsp70-1, endogenous in P. falciparum parasites (from UniProt Q8IB24 1-677)” was run?
**A.** The binding was “binds”.

B1: Plasmodium falciparum Hsp70-Hsp90 organising protein (PfHop), recombinant, his-tagged, Q8ILC1 1-564 (protein)
chain: MVNKEEAQRLKELGNKCFQEGKYEEAVKYFSDAITNDPLDHVLYSNLSGAFASLGRFYEALESANKCISIKKDWPKGYIRKGCAEHGLRQLSNAEKTYLEGLKIDPNNKSLQDALSKVRNENMLENAQLIAHLNNIIENDPQLKSYKEENSNYPHELLNTIKSINSNPMNIRIILSTCHPKISEGVEKFFGFKFTGEGNDAEERQRQQREEEERRKKKEEEERKKKEEEEMKKQNRTPEQIQGDEHKLKGNEFYKQKKFDEALKEYEEAIQINPNDIMYHYNKAAVHIEMKNYDKAVETCLYAIENRYNFKAEFIQVAKLYNRLAISYINMKKYDLAIEAYRKSLVEDNNRATRNALKELERRKEKEEKEAYIDPDKAEEHKNKGNEYFKNNDFPNAKKEYDEAIRRNPNDAKLYSNRAAALTKLIEYPSALEDVMKAIELDPTFVKAYSRKGNLHFFMKDYYKALQAYNKGLELDPNNKECLEGYQRCAFKIDEMSKSEKVDEEQFKKSMADPEIQQIISDPQFQIILQKLNENPNSISEYIKDPKIFNGLQKLIAAGILKVR
**Q.** B1 was tested. Which binding [2] did it give?
**A.** The binding was “binds”.

B2: Plasmodium falciparum Hsp70-Hsp90 organising protein (PfHop), recombinant, his-tagged (natural protein, UniProt Q8ILC1 1-564, looked up)
chain: MVNKEEAQRLKELGNKCFQEGKYEEAVKYFSDAITNDPLDHVLYSNLSGAFASLGRFYEALESANKCISIKKDWPKGYIRKGCAEHGLRQLSNAEKTYLEGLKIDPNNKSLQDALSKVRNENMLENAQLIAHLNNIIENDPQLKSYKEENSNYPHELLNTIKSINSNPMNIRIILSTCHPKISEGVEKFFGFKFTGEGNDAEERQRQQREEEERRKKKEEEERKKKEEEEMKKQNRTPEQIQGDEHKLKGNEFYKQKKFDEALKEYEEAIQINPNDIMYHYNKAAVHIEMKNYDKAVETCLYAIENRYNFKAEFIQVAKLYNRLAISYINMKKYDLAIEAYRKSLVEDNNRATRNALKELERRKEKEEKEAYIDPDKAEEHKNKGNEYFKNNDFPNAKKEYDEAIRRNPNDAKLYSNRAAALTKLIEYPSALEDVMKAIELDPTFVKAYSRKGNLHFFMKDYYKALQAYNKGLELDPNNKECLEGYQRCAFKIDEMSKSEKVDEEQFKKSMADPEIQQIISDPQFQIILQKLNENPNSISEYIKDPKIFNGLQKLIAAGILKVR
**Q.** Which binding [3] does the source give for B2 here?
**A.** Its binding is “no binding (tested: 2 μM)”.
